This assay has as its target GluA1 AMPA glutamate receptor subunit on retinal ganglion cell (RGC) neuron processes (rat (endogenous in RGC cultures)) (UniProt P19490). The assay is described as follows: fluorescence microscopy of Alexa 488-labelled protein bound to cultured neurons; 0.4 ug/ml (0.008 uM) NP1-Alexa 488 added to cultured rat RGCs for 24 h, alone or with 2.5 uM GluA1-Fab or Mut-Fab; cells fixed, surface NP1-Alexa 488 puncta counted; only the binder purified.

The chains behind the UniProt entries cited, without tags or fusion partners. Residues count along the entry.
UniProt P19490, residues 19-907: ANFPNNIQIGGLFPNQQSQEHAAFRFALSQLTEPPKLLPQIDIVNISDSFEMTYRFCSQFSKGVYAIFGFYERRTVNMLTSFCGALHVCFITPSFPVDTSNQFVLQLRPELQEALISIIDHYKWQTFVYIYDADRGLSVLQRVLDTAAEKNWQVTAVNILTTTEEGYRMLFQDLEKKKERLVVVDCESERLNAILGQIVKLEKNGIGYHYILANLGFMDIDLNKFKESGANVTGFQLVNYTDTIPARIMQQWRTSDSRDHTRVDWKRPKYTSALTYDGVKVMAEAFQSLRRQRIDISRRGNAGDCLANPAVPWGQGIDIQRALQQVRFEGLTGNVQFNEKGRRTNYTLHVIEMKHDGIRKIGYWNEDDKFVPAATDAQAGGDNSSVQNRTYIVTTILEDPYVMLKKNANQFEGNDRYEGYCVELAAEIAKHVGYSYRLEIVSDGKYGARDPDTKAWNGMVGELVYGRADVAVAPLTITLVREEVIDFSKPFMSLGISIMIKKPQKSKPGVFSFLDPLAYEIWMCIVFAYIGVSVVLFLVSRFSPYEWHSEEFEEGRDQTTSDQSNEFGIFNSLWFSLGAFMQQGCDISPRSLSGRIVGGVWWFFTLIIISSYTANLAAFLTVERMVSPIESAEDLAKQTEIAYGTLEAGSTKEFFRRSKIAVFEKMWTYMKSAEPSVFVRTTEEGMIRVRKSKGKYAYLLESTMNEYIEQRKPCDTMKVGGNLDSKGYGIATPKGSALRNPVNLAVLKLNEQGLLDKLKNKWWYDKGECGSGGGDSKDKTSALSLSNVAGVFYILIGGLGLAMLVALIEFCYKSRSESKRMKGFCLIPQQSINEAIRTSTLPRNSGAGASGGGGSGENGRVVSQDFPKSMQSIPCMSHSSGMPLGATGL

These results are taken from paper PMC5663462.

Results are given in words; binding and its absence hold for the method and conditions named. Some binding calls cover weakened binding; strength is not graded here. Tags and fused reporters may be left off the sequences shown.

B1: Alexa 488-tagged neuronal pentraxin 1 (NP1) (ligand, UniProt Q62443 23-432)
chain: QDFGPTRFICTSVPVDADMCAASVAAGGAEELRSNVLQLRETVLQQKETILSQKETIRELTTKLGRCESQSTLDSGPGEARSGGGRKQPGSGKNTMGDLSRTPAAETLSQLGQTLQSLKTRLENLEQYSRLNSSSQTNSLKDLLQSKIDDLERQVLSRVNTLEEGKGGPKNDTEERAKIESALTSLHQRISELEKGQKDNRPGDKFQLTFPLRTNYMYAKVKKSLPEMYAFTVCMWLKSSAAPGVGTPFSYAVPGQANELVLIEWGNNPMEILINDKVAKLPFVINDGKWHHICVTWTTRDGVWEAYQDGTQGGNGENLAPYHPIKPQGVLVLGQEQDTLGGGFDATQAFVGELAHFNIWDRKLTPGEVYNLATCSSKALSGNVIAWAESQIEIFGGATKWTFEACRQIN
modifications: Alexa Fluor 488 label (Invitrogen kit A20181)
Take B1: the binding result is on record as “binds”.
